Literature values in patent US20230233565A1, “A TREATMENT APPROACH INVOLVING KIF18A INHIBITION FOR CHROMOSOMALLY UNSTABLE TUMORS” (UNIVERSITY OF VERMONT, priority 2020, published 2023).
At least one structure is not confirmed: it was looked up by name or label, or the drawing left a doubt.

Tested on: MDA-MB-231 cells
Conditions: KIF11 inhibitor; prevents KIF11-dependent antiparallel microtubule sliding; cited from earlier work

CCOC(=O)C1=C(C)NC(=S)NC1c1cccc(O)c1 (stereo not shown) [Monastrol, monastrol]
spindle morphology effect of monastrol: induces monopolar spindles
